Data as given in PMC4762385.

B1: MBP–OsRPA1c (protein, UniProt Q65XV7 1-951)
chain: MEPQLTPGAVQAIAEHPDGTGTIQPVLQVVDVRPVTTKNAPPTPKPAERFRMMLSDGVNTQQSMLATALNPLVKDATLRPGTVVQLTDFMCNTIQGKRIIIVVKLDVLQNDCIVIGNPKHYEPKSLTKEQDPNLQASVAQTNNGTYSGGASMLGPSVAPRAEQAASNSSYGGPYNSAQGMLGSSIGRTVEPGPANVSAVGSYGAISAQNTTNANMMQPTSQLNIMNANTMQPTSQLNTMNANTMQPTSQLSSLNPNQNQRFAAPASGGVFGPPGNAYGQPSRPSYQQPPPVYMNRGPASRNDSATRIIPITALNPYQPKWTIKARVTAKSDIRHWSNARSSGTVFSFDLLDAQGGEIRAQCWKESADKFFGQIEVGRVYLISRGSLKPAQKKYNTLNHDYEITLDIGLSTVEVCSDDDNSIPRLQYNFRQISELENMANETIVDLLGVVTSVSPSATIMRKIGTETRKRSIQLKDLSGRSIEVTLWGNFCDAEGQQLQLQCDSGSNPIIAFKGARVGDFNGKSVSTIGSTQLIINPDFPEVERLRQWYMTEGKTAPCISLSREMLNMGRTDARKTIAQIKDENLGRLEKPDWITVKAAISHVTTESFCYPACPKLLPVGRQCNKKAINNGDGMWHCDRCDESFQNPEYRYMLRFQIQDHTGSTYASAFDEAGEQIFGRKAGELFSIRNVDQDDAQFAEIIEGVRWHLYLFKLKVKEETYNDEQSLKCTAVKVEKLDPSKESNVLLGAIDNLLLDPKGQSDLAPNAGFTDPVGGHGAPTSSNAYAMNTGGVNQFGQQASISAGMSTPLAATRNLQTCSICGANGHSAQICHVGADMDMQETSAGGSSMGNYNSIAGNGSSECYKCKQPGHYARDCPGQSTGGLECFKCKQPGHFSRDCPVQSTGGSECFKCKQPGHFARDCPGQSTGAQHQTYGNNVAASRGYNRQSFVGGY
B2: MBP–OsRPA2c (protein, UniProt Q5Z8L1 1-430)
chain: MAAAASYFSGTALMPSQRSGAPAPEYSAAGTGAAAAPSPSKPRDPRFSGCVPATVLHISRSFAAALAADGGGDPVFSIDGVETTNVRVLGRVVSVVSRDTDVCFTLDDSTGKIPLVRWITDQSDTRDTSYIQEGVYVKVQVNLMGFQAKKQGLARSIRPINNFNEVVLHFIECMHVHLESVQSKMQRQLPPSVQTNEYTHVPSSGGVRDYQVHFTPQVNQGLPPAVQTNTSTYVPLLGGVRDHQAHFAQVNQGQFSPAVQANTSTHLPFSGGVGEHQIHFTPKVNQGQFPPSVQTNTSAHVPYSGGFREHQVHFTPPVNQGQFPPAVQTNLYNHAASSGGVREQVHLTQANQFSAYSSTGGLQHDPQRMVLEALQQPDILALEHGAHVDELVRRTGMPKANIMGVVKHLAAAGFVYWTIDDNHVKSMCNG

Assays:
[1] = target: T1, OsRPA2c, bait in pGBKT7 (rice (Oryza sativa L.)) (UniProt Q5Z8L1); assay: two-hybrid; pGADT7 prey and pGBKT7 bait co-transformed into Gold yeast; dilution series spotted on -LTH or -LTHA medium with X-alpha-gal, 30 °C
T1 sequence: B2 chain

[2] = target: T2, OsRPA1c, bait in pGBKT7 (rice (Oryza sativa L.)) (UniProt Q65XV7); assay: as above
T2 sequence: B1 chain

[3] = target: GST–OsMSH5 (rice (Oryza sativa L.)); assay: pull-down; GST- and OsMSH5–GST-coupled beads used to capture MBP fusions of OsRPA1a, OsRPA2b, OsRPA1c, OsRPA2c; proteins from E. coli BL21; detected with anti-MBP antibody

Row | binding [1] | binding [2] | binding [3] | Molecule
1 | no binding | no binding | – | OsMSH4 (wild type, two-hybrid fusion) (rice (Oryza sativa L.))
2 | binds | binds | – | OsMSH5 (full-length, in prey vector pGADT7) (rice (Oryza sativa L.))
3 | – | – | binds | B1
4 | – | – | binds | B2

No constants are given. Whether binding was seen depends on the method and setting. A result given as binding can be weak or reduced; the word gives no strength. For part of these data: Binding seen in cells or lysates may run through a third protein. For part of these data: Sequences can lack the tags named with a protein.
